Source: ChEMBL document CHEMBL3988442, “University of Dundee, Small-Polar-MMV Screening Library” (2021).

Mtb growth Cornell: 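Whole-cell assay for inhibitors of Mycobacterium tuberculosis growth, labelled Cornell in the record; the read-out is not stated. The concentration is filed as 10 mM, unlikely as a test dose, so the dose is not known. Higher means stronger inhibition (inferred from two other growth screens of the library). About 53,000 compounds were tested under these conditions; 1.7% (about 900) showed 50% or more at least once.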
Mtb heat-shock: 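Assay on Mycobacterium tuberculosis, filed only as a heat shock assay from Cornell; the read-out is not stated. The concentration is filed as 10 mM, unlikely as a test dose, so the dose is not known. Direction is inferred from retests: higher values go with stronger inhibition. Of about 69,000 compounds tested this way, about 930 (1.4%) reached 50% or more in at least one test.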

Results are given as percent effect. The record does not define 0% and 100%; most values in the screen are far below 50% and negative numbers occur (in some assays of this library far below -100). Compounds were drawn at random from those tested, without regard to their results. A dash means the value is not listed here; it may have been measured.

structure	Mtb growth Cornell	Mtb heat-shock
Cc1cc(C)n(CC2CCCN2C(=O)CCc2nccs2)n1 (stereo unspecified)	-	-12.16
[H][C@@]12CCN(CC3CC3)C[C@@]1([H])[C@H](C(=O)N1CCCC1)CCO2	-13.76	6.735
CC(C)C[C@@H](C(N)=O)n1cc(-c2cncnc2)nn1	-71.75	17.58
O=S(=O)(C1CC1)N1CC[C@H](OCC2CC2)[C@@H]1Cc1ccncc1	5.45	-2.597
CS(=O)(=O)c1cn[nH]c1C1CCCCN1C(=O)c1ccsc1 (stereo unspecified)	-15.89	-10.84
CNC(=O)CC1CC2(CCN(Cc3nccs3)CC2)c2ccccc21.O=C(O)C(F)(F)F (stereo unspecified)	23.03	-12.57
CN(C)Cc1cc(CC2(NCc3ccccc3Cl)COC2)no1	-17.23	-32.94
NC(=O)c1cc2c(nc1CCOc1ccc(F)cc1)CCC2	-	-15.23
Cc1cc(C(F)(F)F)nn1CCCNC(=O)C1CCCO1 (stereo unspecified)	-51.46	-26.51
CN(C)S(=O)(=O)N1CCN(C(=O)c2ccc3ccn(C)c3c2)CC1	28.12	15.79
CC(C)c1noc(OCc2cccc(S(=O)(=O)N(C)C)c2)n1	18.95	9.322
Cc1ccc(CN(Cc2ccccn2)C(=O)C2CCCCCN2C)s1 (stereo unspecified)	-7.698	-26.32
N#Cc1ccc(C(=O)N2CCCSCC2CN2CCCC2)cc1 (stereo unspecified)	-	-13.74
CC(=O)N1CCCC(c2nccnc2-c2ccc(CO)cc2)C1 (stereo unspecified)	-38.57	7.312
Cc1cc(C)nc(-n2nc(C)c3c2NC(=O)CSC3c2cnn(C)c2)n1 (stereo unspecified)	-3.256	10.06
Cn1cnnc1C1CCN(C(=O)c2cc3c(s2)CCCC3)CC1	-	-10.39
CNc1ncc2c(n1)CN(CCc1ccccc1)C2=O	-31.67	10.36
c1cnn(CC2CCCN2Cc2nc(C3CC3)no2)c1 (stereo unspecified)	0.7036	-6.183
CC(C)=CCn1ncc(N2CCOCC2)cc1=O	24.33	17.34
O=c1c2cccnc2cnn1CC(O)c1ccc(F)c(F)c1 (stereo unspecified)	-	-1.433
NC(=O)NC(=O)CCN(Cc1ccccc1)CC1CCOCC1	53.84	40.49
Cc1nc(CN(C)C2CCN(Cc3nc4c(F)cccc4[nH]3)C2)no1 (stereo unspecified)	0.8005	28.98
CC(C)CN(C)S(=O)(=O)c1ccc(Cl)cc1C#N	10.2	-15.17
CCOc1cc(/C=C/c2ncc(C(=O)O)s2)ccc1O	-	9.874
O=C(O)C(F)(F)F.[H][C@@]12COC[C@]1([H])[C@@H](OC)CN2Cc1ccc(CC)o1	-11.73	46.3
Cc1noc(C)c1CN(C)C(=O)NC1CCN(C2CC2)CC1	2.061	16.12
O=C(O)C(F)(F)F.O=C(O)C(F)(F)F.[H][C@@]12CCCO[C@]1([H])[C@H](N(C)Cc1ccco1)CN2Cc1ccc(OC)cc1	-	2.974
Cc1nc(-c2ccc(S(=O)(=O)N3CCC4(CC3)OCCO4)cc2)co1	-0.9291	5.372
Cc1cnn(CC2CCCN2C(=O)Cc2c(C)nc(C)[nH]c2=O)c1 (stereo unspecified)	-22.46	-9.157

For reference, 3 entries once more:

Result for CCOc1cc(/C=C/c2ncc(C(=O)O)s2)ccc1O was Mtb heat-shock: 9.874%.
Result for NC(=O)c1cc2c(nc1CCOc1ccc(F)cc1)CCC2 was Mtb heat-shock: -15.23%.
Result for Cc1noc(C)c1CN(C)C(=O)NC1CCN(C2CC2)CC1 was Mtb growth Cornell: 2.061%; Mtb heat-shock: 16.12%.